Measured values: paper PMC11780858
These are yes or no findings as the source states them, for the method shown. In cells and extracts the contact can be indirect. Some binding calls cover weakened binding; strength is not graded here. Sequences can lack the tags named with a protein.

Protein sequences, listed by entry. Tags and fused reporters are not part of them.
UniProt P67775: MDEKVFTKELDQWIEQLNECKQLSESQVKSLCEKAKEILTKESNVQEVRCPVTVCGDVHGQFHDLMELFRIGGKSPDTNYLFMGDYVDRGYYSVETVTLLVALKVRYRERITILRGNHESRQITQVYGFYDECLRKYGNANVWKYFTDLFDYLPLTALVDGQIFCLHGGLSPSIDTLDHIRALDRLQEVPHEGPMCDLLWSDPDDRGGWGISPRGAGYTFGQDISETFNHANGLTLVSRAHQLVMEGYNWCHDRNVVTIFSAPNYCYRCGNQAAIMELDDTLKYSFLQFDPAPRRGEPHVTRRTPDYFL

Target: PP2A catalytic Cα subunit, N-terminally SmBiT-tagged (human) (UniProt P67775)
Experiment: split reporter; live COS-1 cells in 96-well plates transfected with equal mass ratios of plasmids for SmBiT-Cα, Bβ2-LgBiT and Aα (without Lg/SmBiT); luminescence with Nano-Glo Live Cell Substrate after 24-36 h; normalised for Bβ2-LgBiT expression with a cell-permeable HiBiT peptide

B1: PPP2R2B/Bβ2 wild type, C-terminally LgBiT-tagged (protein, UniProt Q00005-2 1-446)
chain: MKCFSRYLPYIFRPPNTILSSSCHTEADIISTVEFNHTGELLATGDKGGRVVIFQREQESKNQVHRRGEYNVYSTFQSHEPEFDYLKSLEIEEKINKIRWLPQQNAAYFLLSTNDKTVKLWKVSERDKRPEGYNLKDEEGRLRDPATITTLRVPVLRPMDLMVEATPRRVFANAHTYHINSISVNSDYETYMSADDLRINLWNFEITNQSFNIVDIKPANMEELTEVITAAEFHPHHCNTFVYSSSKGTIRLCDMRASALCDRHTKFFEEPEDPSNRSFFSEIISSISDVKFSHSGRYIMTRDYLTVKVWDLNMENRPIETYQVHDYLRSKLCSLYENDCIFDKFECVWNGSDSVIMTGSYNNFFRMFDRNTKRDVTLEASRENSKPRAILKPRKVCVGGKRRKDEISVDSLDFSKKILHTAWHPSENIIAVAATNNLYIFQDKVN
With B1 the binding was “binds”.
